According to PubChem BioAssay AID901 (National Center for Advancing Translational Sciences (NCATS), 2007):
This is one part of the list. The main result of the screen is listed elsewhere. These columns were measured beside it and carry no call. Compounds called inactive in the main read-out are mostly missing here. Potencies come from curve fits of mixed quality, noted in brackets.

Assay: qHTS Assay for Identifying the Cell-Membrane Permeable IMPase Inhibitors
Conditions: CHO-M1 cells, IP1 accumulation, HTRF TR-FRET ratio; measured here: donor channel 620 nm AC50

| Structure (SMILES) | AC50 |
| --- | --- |
| COc1ccccc1N(CC(=O)NCCSc1ccccc1)S(=O)(=O)c1ccc(C)cc1 | 5.01 µM [falling, full curve, poor fit] |
| CCCCc1nc2n[nH]c(N)c2c2c1CCC2 | 35.5 µM [rising, single point] |
| CSc1nc2sc3c(c2c(=O)n1-c1ccc(C)cc1)CCCC3 | 11.2 µM [rising, single point] |
| CC1(C)OC(c2ccccc2)=C/C(=C/C=Nc2ccccc2)O1 | 0.2 µM [rising, single point] |
| COC(=O)NNC(=O)c1cccc(C)c1 | 0.126 µM [falling, full curve] |
| CCOC(=O)c1ccc(NS(=O)(=O)c2cc(-c3nnnn3CC)ccc2OC)cc1 | 31.6 µM [falling, single point] |
| CCc1ccc(CNC(=O)c2cc3c(C)nc4ccccc4c3o2)cc1 | 35.5 µM [falling, single point] |
| O=[N+]([O-])c1ccc(Cl)c(/C=N/NC(=S)Nc2ccccc2)c1 | 0.158 µM [falling, full curve, poor fit] |
| COc1ccc(/C(O)=C2/C(=O)C(=O)N(c3nc(C)c(C)s3)C2c2ccco2)cc1 (configuration not stated) | 15.8 µM [rising, single point] |
| O=C1NCCCC2c3cc(O)c4ccccc4c3OC12N1CCCCC1 (configuration not stated) | 3.98 µM [falling, full curve] |
| O=c1[nH]c2ccc(S(=O)(=O)N3CCC(Cc4ccccc4)CC3)cc2o1 | 6.31 µM [rising, single point] |
| CCCc1nnc(NC(=O)C(CC)Sc2nnc3c4ccccc4n(C)c3n2)s1 (configuration not stated) | 0.708 µM [rising, single point] |
| CCn1ncc(/C=C/C(=O)NCc2cnn(C)c2C)c1C | 6.31 µM [falling, full curve, poor fit] |
| CCn1cc(C(=O)NCC2CCCO2)c(=O)c2cc(S(=O)(=O)N3CCCCC3)ccc21 (configuration not stated) | 0.1 µM [falling, full curve] |
| CCOC(=O)C1CCCN(C(=O)CN2C(=O)COc3ccc(C(C)(C)C)cc32)C1 (configuration not stated) | 6.31 µM [rising, full curve, poor fit] |
| CCCOc1ccc(C(=O)Nc2ccc(NC(=O)c3ccccc3)c(C)c2)cc1 | 0.562 µM [falling, full curve] |
| COCCCN1C(=O)C(=O)/C(=C(/O)c2ccc(OCC(C)C)cc2C)C1c1cccnc1 (configuration not stated) | 31.6 µM [rising, single point] |
| CNc1ccc(Br)cc(C(=O)/C=C/c2cccc(OC)c2OC)c1=O | 31.6 µM [falling, single point] |
| Cc1cc(C)nc(SCc2nc3nc(C)cc(C)n3c2Br)n1 | 0.01 µM [rising, full curve, poor fit] |
| CCOc1ccc2nc(SCc3cccc(C)c3)nc(C)c2c1 | 3.98 µM [rising, single point] |
| COc1ccc(OC)c(C2/C(=C(/O)c3cnn(-c4ccccc4)c3C)C(=O)C(=O)N2CCN(C)C)c1 (configuration not stated) | 0.562 µM [falling, full curve] |

| Structure (SMILES) | AC50 |
| --- | --- |
| CC(C)C1CC(O)(C2(O)CCCCC2)ON1 (configuration not stated) | 28.2 µM [falling, single point] |
| COc1ccc(-c2csc(Nc3cccnc3)n2)cc1OC | 10 µM [falling, partial curve, poor fit] |
| N#CC(C(=O)Nc1ccccc1)=C1Nc2ccccc2N1 | 1.26 µM [falling, full curve, poor fit] |
| Cc1ccc(NC(=O)Cn2c(=O)n(CC(=O)NCCc3ccccc3)c(=O)c3ccccc32)cc1C | 25.1 µM [rising, single point] |
| COCCCn1[nH]c2c3c(ccc2c1=O)C(=O)c1ccccc1C3=O | 15.8 µM [falling, partial curve] |
| COc1ccc(NC(C)=O)cc1NC(=O)CSc1nnc(-c2ccccc2)n1N | 35.5 µM [falling, single point] |
| CCOC(=O)c1csc(NC(=O)CSc2nnnn2-c2ccc3c(c2)OCCO3)n1 | 0.1 µM [falling, single point] |
| O=C(NCCC1=CCCCC1)C1CCN(Cc2cnn(-c3ccccc3)c2-n2cccc2)CC1 | 0.0158 µM [rising, full curve, poor fit] |
| COCCNC(=O)C(c1ccccc1C)N(C(=O)Cn1nnc2ccccc21)c1cccnc1 (configuration not stated) | 31.6 µM [falling, single point] |
| Cc1ccccc1CSCCNC(=O)c1ccc(Cl)c(S(=O)(=O)N2CCOCC2)c1 | 0.251 µM [falling, full curve, poor fit] |
| COc1cccc(C(=O)Nc2ncc3c(n2)CC(c2ccc(OC)cc2OC)CC3=O)c1 (configuration not stated) | 6.31 µM [rising, partial curve] |
| COc1cccc(-c2ccc(-c3noc(-c4ccccc4Br)n3)c(OC)n2)c1 | 3.16 µM [rising, single point] |
| O=C1CCc2cc(S(=O)(=O)N3CCN(c4cccc(Cl)c4)CC3)ccc2N1 | 0.251 µM [falling, full curve] |
| CCOC(=O)CC(NC(=O)c1ccco1)c1ccc(C)cc1 (configuration not stated) | 0.316 µM [falling, full curve] |
| CC(=O)NS(=O)(=O)c1cccnc1Nc1ccc(Cl)cc1 | 0.00794 µM [falling, full curve, poor fit] |
| NC(=O)C1CCN(CC(=O)Nc2ccccc2Sc2ccc(Cl)cc2)CC1 | 6.31 µM [falling, single point] |
| CCOc1ncccc1C(=O)OCC(=O)c1cccs1 | 0.1 µM [falling, full curve, poor fit] |
| COc1ccc(OC)c(S(=O)(=O)NCCc2ccccc2)c1 | 0.501 µM [falling, partial curve, poor fit] |
| Cc1cc(C)c2c3c(sc2n1)C(=O)N(C)CC(=O)N3 | 0.01 µM [rising, full curve, poor fit] |
| Cc1cc(NC(=O)C2CCCN(S(=O)(=O)c3ccc(Br)s3)C2)ccc1Br (configuration not stated) | 0.112 µM [falling, full curve, poor fit] |
| COC(=O)[C@H](Cc1ccccc1)NC(=O)N1CC(C)OC(C)C1 (some centres not stated) | 10 µM [falling, partial curve, poor fit] |

Nothing new here: entries from further up.

| Structure (SMILES) | AC50 |
| --- | --- |
| CC(C)C1CC(O)(C2(O)CCCCC2)ON1 (configuration not stated) | 28.2 µM [falling, single point] |
| COc1ccc(-c2csc(Nc3cccnc3)n2)cc1OC | 10 µM [falling, partial curve, poor fit] |
